Assays:
[1] = target: prefusion RSV F (DS-Cav1) (Human respiratory syncytial virus A, UniProt P03420, I379V/M447V/S155C/S190F/S290C/V207L); format: binding, RSV strain A2; settings: ITC, 25 °C, PBS 1% DMSO; mean ± s.d. (n = 2)
postfusion RSV F = settings: ITC, control

Q: `Cc1ccc(CCCO)c(NCc2ccc3nc(NCCCN4CCOCC4)n(Cc4nc(C)ccc4O)c3c2)c1` [TMC-353121] was tested. Which Kd [1] did it give?
A: The Kd was 8.7 ± 10 nM.

Q: And the “Stoichiometry of fusion inhibitor to trimeric prefusion RSV F” value [1]?
A: The value was 0.9 ± 0.014.

Q: What about the ΔH [1] of the same molecule?
A: The ΔH was -16 ± 0.0 kcal/mol.

Q: And the “−TΔS” value [1]?
A: The value was 4.8 ± 1.3 kcal/mol.

Q: What about the “Binding to postfusion RSV F” value (postfusion RSV F) of the same molecule?
A: The value was “no binding was detected”.

Source: article PMC4731865 (Nature chemical biology, 2015)
